In ChEMBL document CHEMBL4196216, “Dinghupeptins A-D, Chymotrypsin Inhibitory Cyclodepsipeptides Produced by a Soil-Derived Streptomyces” (J Nat Prod, 2018) one finds IC50 data, which are given here for one molecule.

Structures can show the parent of a compound that is named as a salt.

Assay [1] relates to A549. The assay can be described thus: Cytotoxicity against human A549 cells after 72 hrs by MTT assay. Type of assay: functional, cell-based. The settings on record: A549, 72 h. For orientation: Formazan colour is commonly taken as a measure of viable cells.
Assay [2] concerns HeLa. The assay can be described thus: Cytotoxicity against human HeLa cells after 72 hrs by MTT assay. In kind it is functional, cell-based.

Consider `COc1cccc2c1C(=O)c1c(O)c3c(c(O)c1C2=O)C[C@@](O)(C(=O)CO)C[C@@H]3O[C@H]1C[C@H](N)[C@H](O)[C@H](C)O1` [DOXORUBICIN HYDROCHLORIDE], for which the IC50 in assay [1] was 120 nM; in assay [2], 310 nM.

A word on the IC50: it is the concentration at which inhibition is half-maximal. Higher therefore signals a need for much substance.
